Data from publication doi:10.1101/2025.05.09.653063 (bioRxiv, 2025).
Like-named read-outs stand apart in the source and are kept apart here. These are yes or no findings as the source states them, for the method shown. In cells and extracts the contact can be indirect. These calls come from enrichment with a bait or labelling near it, and not all partners need be listed. For some of these results: Tags and fused reporters may be left off the sequences shown.

T1: proteasome α subunit (PsmA), genome-encoded, non-tagged (Saccharolobus islandicus REY15A (endogenous in E233S)) (UniProt C3MQ43)
T1 sequence: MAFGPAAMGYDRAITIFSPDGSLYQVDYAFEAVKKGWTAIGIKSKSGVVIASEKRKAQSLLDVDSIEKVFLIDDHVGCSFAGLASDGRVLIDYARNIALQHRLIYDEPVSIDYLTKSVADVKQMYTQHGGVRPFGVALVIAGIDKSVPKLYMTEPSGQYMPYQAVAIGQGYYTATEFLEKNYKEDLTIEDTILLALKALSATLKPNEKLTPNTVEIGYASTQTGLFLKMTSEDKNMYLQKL


What was measured:
Assay in all cases: affinity purification with mass spectrometry
[1] = molecular target: His-tagged ePK2 (SiRe_2030) (Saccharolobus islandicus REY15A) (UniProt F0NC32)
[2] = molecular target: T1, proteasome α subunit (PsmA), genome-encoded, non-tagged (Saccharolobus islandicus REY15A (endogenous in E233S))
[3] = molecular target: His-tagged ePK2 (SiRe_2030) (Saccharolobus islandicus REY15A) (UniProt F0NC32); remark: listed apart in the source

| binding [2] | Molecule | further results |
| --- | --- | --- |
| – | fructose-1,6-biphosphate aldolase/phosphatase (Fbp) (from UniProt F0NII8) (enzyme) | binding [1]: binds |
| binds | potential 20S proteasome assembly factor SiRe_1163, endogenous (from UniProt F0NEV0) | – |
| binds | potential 20S proteasome assembly factor SiRe_1724, endogenous (from UniProt F0NIK1) | – |
| – | His-tagged wild type PsmA (natural protein, Saccharolobus islandicus REY15A, UniProt C3MQ43 1-241, looked up) MAFGPAAMGYDRAITIFSPDGSLYQVDYAFEAVKKGWTAIGIKSKSGVVIASEKRKAQSLLDVDSIEKVFLIDDHVGCSFAGLASDGRVLIDYARNIALQHRLIYDEPVSIDYLTKSVADVKQMYTQHGGVRPFGVALVIAGIDKSVPKLYMTEPSGQYMPYQAVAIGQGYYTATEFLEKNYKEDLTIEDTILLALKALSATLKPNEKLTPNTVEIGYASTQTGLFLKMTSEDKNMYLQKL | binding [3]: binds |
